{"source": "the supplement of paper PMC7238544", "note": "Structures can show the parent of a compound that is named as a salt. ± gives the standard deviation of the averaged measurements. Some of the results follow. The data scatter; read single values as rough.", "data": [{"tested_on": "hAMSC donor 1", "assay": "Hoechst total cell count ratio vs vehicle control; higher = more cells (less toxicity)", "settings": "priming compound concentration 1.7 µM", "values": [{"smiles": "O=C1N(c2ccccc2)c2ccccc2C1(Cc1ccncc1)Cc1ccncc1", "note": "[Linopirdine dihydrochloride]", "Hoechst total cell count ratio": "1.18 ± 0.034"}, {"smiles": "CN(C)CCC=C1c2ccccc2COc2ccccc21", "note": "[Doxepin hydrochloride]", "Hoechst total cell count ratio": "1.39 ± 0.41"}, {"smiles": "C[C@@H]1CN(CCCn2c3ccccc3c3ccccc32)C[C@H](C)N1", "note": "[Rimcazole dihydrochloride]", "Hoechst total cell count ratio": "1.19 ± 0.23"}, {"smiles": "Nc1nc2ccc(OC(F)(F)F)cc2s1", "note": "[Riluzole hydrochloride]", "Hoechst total cell count ratio": "1.08 ± 0.027"}, {"smiles": "NC(N)=Nc1nc(CSCC/C(N)=N/S(N)(=O)=O)cs1", "note": "[Famotidine]", "Hoechst total cell count ratio": "1.01 ± 0.026"}, {"smiles": "CN(C)CCN(Cc1ccccc1)c1ccccn1", "note": "[Tripelennamine hydrochloride]", "Hoechst total cell count ratio": "0.931 ± 0.065"}]}, {"tested_on": "hAMSC donor 1", "assay": "Hoechst total cell count ratio vs vehicle control; hAMSC are human adipose-derived mesenchymal stem cells given an EGFP-luciferase plasmid by lipofection; higher = more cells (less toxicity)", "settings": "priming compound concentration 13 µM", "values": [{"smiles": "O=C1NC(=O)C(c2ccccc2)(c2ccccc2)N1", "note": "[Dilantin]", "Hoechst total cell count ratio": "0.881 ± 0.058"}, {"smiles": "CC(C)C[C@H](NC(=O)[C@@H](COC(C)(C)C)NC(=O)[C@H](Cc1ccc(O)cc1)NC(=O)[C@H](CO)NC(=O)[C@H](Cc1c[nH]c2ccccc12)NC(=O)[C@H](Cc1cnc[nH]1)NC(=O)[C@@H]1CCC(=O)N1)C(=O)N[C@@H](CCCNC(=N)N)C(=O)N1CCC[C@H]1C(=O)NNC(N)=O", "note": "[Goserelin acetate]", "Hoechst total cell count ratio": "1.18 ± 0.071"}, {"smiles": "O=C1CN(/N=C/c2ccc(-c3ccc([N+](=O)[O-])cc3)o2)C(=O)N1", "note": "[Dantrolene sodium]", "Hoechst total cell count ratio": "1.24 ± 0.24"}, {"smiles": "CCN(CC)CC(=O)Nc1c(C)cccc1C", "note": "[Lidocaine]", "Hoechst total cell count ratio": "0.99 ± 0.14"}, {"smiles": "C=CC[C@@H]1/C=C(\\C)C[C@H](C)C[C@H](OC)[C@H]2O[C@@](O)(C(=O)C(=O)N3CCCC[C@H]3C(=O)O[C@H](/C(C)=C/[C@@H]3CC[C@@H](O)[C@H](OC)C3)[C@H](C)[C@@H](O)CC1=O)[C@H](C)C[C@@H]2OC", "note": "[Tacrolimus]", "Hoechst total cell count ratio": "1.54 ± 0.15"}]}]}
